Measured values taken from article PMC10163288.
This is one part of the list.

B1: il2ra_site1_1z92_normal_mot_8b466c8ab6a4ea9d290724e70e8647ea_0001_000000211_0001_54_65_H_._2874ac36c98298a0dc4d99a960bb3065_0001_af2_0001_0000400048_0000001_0_a … (protein)
chain: TEEFLAEQVIRKIKAGNEEAVEKLVEKLSKASGVPPEEVLKFLLQLLRELGDPEAVEFIEELLRR
B2: il2ra_site2_3nfp_normal_mot_HHH_b1_02297_000000279_0001_41_58_H_._HHH_b2_01981_af2_0001_0000300015_0000001_0_af2pred_0001_af2pred (protein)
chain: SSSSSDEEEVRKEVEKLLEQAEKVDEEEAERLLLRAALLAVELNDFELYAAVNEAMLRLLSSSSS
B3: il2ra_site1_3nfp_sap_16_mot_HHH_b1_02961_000000081_0001_1_18_H_._HHH_b2_07522_0001_0000200013_0000001_0_0001 (protein)
chain: SSSSDTARKANRLLREVMELKKNGNPEEARRLLEELAKELEERGDEVALFLVRQYLRLIEESSSS
B4: il2ra_site2_2erj_sap_16_mot_HHH_b2_03659_000000135_0001_38_56_H_._HHH_b1_00300_0001_0000300021_0000001_0_0001 (protein)
chain: SSSSSLRESYELAVRLTRALAEGDEELIRKLREEIRELAEETNSENLEEILESLERLFHSSSSSS
B5: il2ra_site2_2erj_normal_mot_HHH_b2_07568_000000046_0001_18_34_H_._HHH_b2_00320_af2_0001_0000400008_0000001_0 (protein)
chain: SSSSSSEEVEELLERAEELLEEGDPEQAISLLAEAALLALHLGDPIAEEIRRLAEKVFELSSSSS
B6: il2ra_site1_2b5i_sap_8_mot_HHH_b2_00318_000000002_0001_42_56_H_._HHH_b2_03364_af2_0001_0000100002_0000001_0_0001_af2pred_dldesign_0_af2pred (protein)
chain: SSSSSSKEEELKEEIQKLCDEASKLPPEEANRLLYEALVLARKAKNPELIALVEAAAKKLSSSSS
B7: il2ra_site1_3nfp_normal_mot_136a1b26558f6d63e39c8b7f62c9aa34_0001_af2_000000044_0001_17_31_H_._HHH_b2_04513_0001_0000600033_0000001_0_af2pred_0001_af2pred_1 (protein)
chain: SSSSDLEERVEELLREAEEAAEEGDAQRVDRLVKEALKLADELGNPELKELIRRVMEKLAKSSSS
B8: il2ra_site1_1z92_normal_mot_01209686ea234b34325f918445e6eade_0001_af2_000000154_0001_18_33_H_._HHH_b2_03766_af2_0001_0000200011_0000001_1 (protein)
chain: SSSSSDLEEFAQEVVERLVEELGLSEEVKEALKRDAELLVRLGFSERSLERALKLHAERDSSSSS
B9: il2ra_site1_3nfp_sap_11_mot_9895c1d898f6985d52506ef494acec2a_0001_1_af2_000000173_0001_18_31_H_._HHH_b2_08375_0001_0000500014_0000001_0_0001 (protein)
chain: TLEEYVEKAEEALRDDPEVQEALEKLLKLAEEDPDNKEVAELIIKLVALAQHDREEARKLAEEIK
B10: il2ra_site2_3nfp_sap_36_mot_HHH_b1_07764_000000013_0001_24_39_H_._41bf9513afb4a9f800fdbd9786f8515b_0001_0001_0000100004_0000001_0_0001 (protein)
chain: SSSSDRSEEYLKAALALLEELVERGDEEFFERHLELVRLAAEDANDEEVRERLEELRELIKSSSS
B11: il2ra_site2_2erj_normal_mot_HHH_b2_01275_af2_000000073_0001_23_39_H_._HHH_b1_03892_af2_0001_0000200008_0000001_1 (protein)
chain: SSSSDEELRELYELAVRLLRLLFEGDEEKIKELLREVQELAEKLQSQAAERLVEEVEKKLSSSSS
B12: il2ra_site1_1z92_normal_mot_1581cc1c700002558836ca695aafbf97_0001_1_af2_000000099_0001_17_32_H_._HHH_b2_05050_0001_0000200017_0000001_0_af2pred_0001_af2pred (protein)
chain: SSSSDEEVERLVEELVEEFNLSEEEEKELRRIARSAEELGADPELVKKALEHFVEFLKRKGSSSS
B13: il2ra_site2_3nfp_normal_mot_HHH_b1_03818_000000217_0001_1_20_H_._HHH_b1_03372_af2_0001_0000500027_0000001_0 (protein)
chain: SSSSDEEKLRELEEEIEELIKEGDKYEVFQLVAELSELAARLQDEEAVKFVIEVYEWLKGSSSSS
B14: il2ra_site1_1z92_sap_18_mot_HHH_b1_00499_000000281_0001_1_17_H_._4428453eb85d3cbdb794fa6b82d21c19_0001_0001_0000300039_0000001_0_0001 (protein)
chain: SSSSDEEFEELRRIVEELRELLKERGDRKAEELVEFLLRSAERLKNPKHLEFAIQDAEARISSSS
B15: il2ra_site1_3nfp_normal_mot_HHH_b1_01231_af2_000000170_0001_1_16_H_._HHH_b2_07700_af2_0001_0000100001_0000001_0 (protein)
chain: SSSSDVREEVRRLLQEALRAAVEGDPEEARELAEEALELAEERNDPQLEKFARRVLRDIRGSSSS
B16: il2ra_site1_1z92_sap_8_mot_HHH_b1_00287_000000111_0001_42_57_H_._HHH_b1_06795_af2_0001_0000100011_0000001_1_0001_af2pred_0001_af2pred (protein)
chain: SSSSNHEVHKLFIEASRLLSKGNPEEAERLLEEALELAREEGDELAAKQIEHILEAIKKSSSSSS
B17: il2ra_site2_3nfp_normal_mot_HHH_b1_01086_af2_000000264_0001_39_53_H_._HHH_b2_00528_0001_0000100004_0000001_0_af2pred_0001_af2pred (protein)
chain: SSSSSDEEVRRLLEEAERALEEGDPELVRFLLLLALEAALQLRDEELEREVRHVAKELNRSSSSS
B18: il2ra_site1_2b5i_sap_10_mot_HHH_b1_00432_000000039_0001_1_18_H_._HHH_b1_03544_af2_0001_0000500028_0000001_0_0001 (protein)
chain: SSSDYEELTRAAVRIVWKLRWKFGLSAEQARELNRLAAELADEGVSPEEIEEELEKLAHELSSSS
B19: il2ra_site1_2b5i_normal_mot_HHH_b2_01648_000000060_0001_42_56_H_._HHH_b1_05011_0001_0000300022_0000001_0_af2pred_dldesign_0_af2pred (protein)
chain: SSSSSKFVDRVVAQAREEFEELLAEGDEEALKKLLEQLEELERLTKDPKVRAELERLKALLSSSS
B20: il2ra_site1_1z92_sap_10_mot_HHH_b2_07834_af2_000000183_0001_23_39_H_._HHH_b2_03932_0001_0000300026_0000001_0_0001_af2pred_0001_af2pred_swapped (protein)
chain: SLTEEDLREAVEKNDEEELRKFIELLLRDAGDPKYVKRLLKILVKRLGLPPEVLERLEELLEELT
B21: il2ra_site2_2erj_normal_mot_HHH_b1_03609_af2_000000077_0001_42_55_H_._HHH_b1_03248_0001_0000600011_0000001_0 (protein)
chain: SSSSSSEEEERVEELLEEAKEIPDPKEREEVLREASEIAFRLGDFRLWALVSEVFRELNQSSSSS
B22: il2ra_site2_2erj_sap_20_mot_HHH_b2_07568_000000046_0001_18_34_H_._HHH_b2_02074_0001_0000200022_0000001_0_0001 (protein)
chain: SSSSTDNVRASLEAAEEALERGSPEVARAYLELLLRDLKRSGDEEAIEEVQKILEEVERRSSSSS
B23: il2ra_site1_1z92_sap_10_mot_HHH_b1_02362_af2_000000131_0001_1_17_H_._HHH_b2_01219_0001_0000200021_0000001_0_0001_af2pred_0001_af2pred_1 (protein)
chain: EDHEAFQRDVEQLAKFAGVPSFEVEVRNNTVEVTLNGDDEAARNAQKALERLAKEAGIEVHVEVE
B24: il2ra_site2_2erj_sap_18_mot_HHH_b2_02734_000000067_0001_42_55_H_._HHH_b2_06464_af2_0001_0000300019_0000001_0_0001 (protein)
chain: SSSSDEFHRLYELAEEVIELLSRGNKEEAEKLLEELEEIARKLQSDNVHEIVENLERHLNSSSSS

What follows are binders tested against il2ra, P01589 (assay: yeast display titration).

Apparent Kd, inactive:
B1 no binding seen
B2 no binding seen
B3 no binding seen
B4 no binding seen
B5 no binding seen
B6 no binding seen
B7 no binding seen
B8 no binding seen
B9 no binding seen
B10 no binding seen
B11 no binding seen
B12 no binding seen
B13 no binding seen
B14 no binding seen
B15 no binding seen
B16 no binding seen
B17 no binding seen
B18 no binding seen
B19 no binding seen
B20 no binding seen
B21 no binding seen
B22 no binding seen
B23 no binding seen
B24 no binding seen
